The other results are listed elsewhere or left out.
Key:
Assay in all cases: log2 fold change, soluble protein after heating vs DMSO (PISA); higher = thermal stabilisation; K562 lysate, 10 uM; active = over 0.2 and 3.5 SD of the protein, either way, in both replicates (recomputed)
lapatinib = compound: CS(=O)(=O)CCNCc1ccc(-c2ccc3ncnc(Nc4ccc(OCc5cccc(F)c5)c(Cl)c4)c3c2)o1 [lapatinib]
How it was run: (§1)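 Log-two fold change in thermal stability relative to solvent controls is reported from duplicates. For each sample, crude K562 extract from dounce-homogenised pellets in PBS pH 7.4 with 1 mM MgCl2, at 1 mg/mL protein, was treated with 10 μM compound for 30 min. Aliquots heated for 3 min across 48°C-58°C were pooled, brought to 0.5% NP-40 at 4°C and cleared at 21,000xg for 90 min. The supernatant was quantified by TMTpro 16plex LC-MS/MS with channel sums equalised.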

Sequences of proteins named here, by UniProt entry; tags and fusion partners are left off. A change or cut given only in a name is not applied to a line headed by its entry.
UniProt O95684: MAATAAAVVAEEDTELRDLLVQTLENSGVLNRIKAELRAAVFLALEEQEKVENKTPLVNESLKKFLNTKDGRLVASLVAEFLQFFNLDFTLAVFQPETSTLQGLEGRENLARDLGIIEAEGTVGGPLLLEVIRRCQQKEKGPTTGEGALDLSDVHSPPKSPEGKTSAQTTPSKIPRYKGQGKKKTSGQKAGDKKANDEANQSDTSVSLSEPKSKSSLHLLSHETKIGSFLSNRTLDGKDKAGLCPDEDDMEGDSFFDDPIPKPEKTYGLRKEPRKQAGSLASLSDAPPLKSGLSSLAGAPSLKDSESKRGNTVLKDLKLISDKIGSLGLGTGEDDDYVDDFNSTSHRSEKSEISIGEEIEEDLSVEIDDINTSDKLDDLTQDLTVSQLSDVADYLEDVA
UniProt Q8NFG4: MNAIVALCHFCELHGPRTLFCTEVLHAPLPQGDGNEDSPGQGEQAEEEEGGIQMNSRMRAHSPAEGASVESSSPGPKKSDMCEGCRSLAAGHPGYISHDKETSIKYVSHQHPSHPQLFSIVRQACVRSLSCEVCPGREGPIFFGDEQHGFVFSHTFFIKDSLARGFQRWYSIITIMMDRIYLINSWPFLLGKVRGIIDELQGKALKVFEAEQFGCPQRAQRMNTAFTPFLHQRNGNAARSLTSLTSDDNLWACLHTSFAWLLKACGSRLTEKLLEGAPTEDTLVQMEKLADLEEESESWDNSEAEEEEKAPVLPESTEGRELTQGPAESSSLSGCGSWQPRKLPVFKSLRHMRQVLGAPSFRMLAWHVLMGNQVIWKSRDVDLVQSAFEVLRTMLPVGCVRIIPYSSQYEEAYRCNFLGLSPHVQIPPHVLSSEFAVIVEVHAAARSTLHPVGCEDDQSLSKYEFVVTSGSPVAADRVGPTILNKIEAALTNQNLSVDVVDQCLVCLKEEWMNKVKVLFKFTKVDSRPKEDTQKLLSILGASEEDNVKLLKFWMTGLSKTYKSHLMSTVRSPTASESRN
UniProt Q6PIJ6: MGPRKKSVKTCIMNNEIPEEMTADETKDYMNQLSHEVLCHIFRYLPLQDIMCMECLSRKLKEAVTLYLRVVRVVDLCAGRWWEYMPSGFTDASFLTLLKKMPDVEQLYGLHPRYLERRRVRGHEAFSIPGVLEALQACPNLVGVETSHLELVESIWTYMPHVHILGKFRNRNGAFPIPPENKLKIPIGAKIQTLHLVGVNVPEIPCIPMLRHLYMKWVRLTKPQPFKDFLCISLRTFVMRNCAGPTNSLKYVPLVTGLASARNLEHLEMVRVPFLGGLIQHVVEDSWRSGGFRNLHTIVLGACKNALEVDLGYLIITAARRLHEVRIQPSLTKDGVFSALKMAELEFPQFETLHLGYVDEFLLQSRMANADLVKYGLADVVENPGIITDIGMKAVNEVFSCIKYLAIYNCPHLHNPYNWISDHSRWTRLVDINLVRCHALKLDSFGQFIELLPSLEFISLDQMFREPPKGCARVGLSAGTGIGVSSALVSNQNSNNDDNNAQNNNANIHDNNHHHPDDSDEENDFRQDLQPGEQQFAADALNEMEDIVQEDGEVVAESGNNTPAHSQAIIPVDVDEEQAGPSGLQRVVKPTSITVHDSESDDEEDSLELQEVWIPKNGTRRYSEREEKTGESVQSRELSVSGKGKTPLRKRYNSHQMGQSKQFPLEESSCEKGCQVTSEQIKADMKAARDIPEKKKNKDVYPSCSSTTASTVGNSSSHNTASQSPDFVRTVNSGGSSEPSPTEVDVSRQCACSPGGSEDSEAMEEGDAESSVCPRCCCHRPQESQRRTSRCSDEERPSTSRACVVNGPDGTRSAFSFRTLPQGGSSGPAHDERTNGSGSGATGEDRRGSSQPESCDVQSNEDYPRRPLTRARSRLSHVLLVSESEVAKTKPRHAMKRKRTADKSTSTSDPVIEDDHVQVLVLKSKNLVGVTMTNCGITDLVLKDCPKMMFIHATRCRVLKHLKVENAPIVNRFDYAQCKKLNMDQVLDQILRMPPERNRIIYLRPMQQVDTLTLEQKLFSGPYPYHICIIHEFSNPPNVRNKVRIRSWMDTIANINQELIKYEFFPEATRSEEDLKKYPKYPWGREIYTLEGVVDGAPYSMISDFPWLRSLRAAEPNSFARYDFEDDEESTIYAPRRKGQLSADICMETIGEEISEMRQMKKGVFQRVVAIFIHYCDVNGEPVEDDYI
UniProt Q9NW38: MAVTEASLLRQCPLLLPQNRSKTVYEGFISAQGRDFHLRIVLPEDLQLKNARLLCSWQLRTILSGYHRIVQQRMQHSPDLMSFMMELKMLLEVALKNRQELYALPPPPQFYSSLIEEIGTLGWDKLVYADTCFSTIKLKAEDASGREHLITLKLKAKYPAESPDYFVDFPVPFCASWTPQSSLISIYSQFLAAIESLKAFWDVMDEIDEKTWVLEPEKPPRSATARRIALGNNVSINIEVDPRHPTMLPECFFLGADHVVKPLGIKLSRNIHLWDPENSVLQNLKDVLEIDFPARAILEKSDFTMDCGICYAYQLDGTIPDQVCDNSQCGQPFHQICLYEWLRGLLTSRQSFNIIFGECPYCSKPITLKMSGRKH
UniProt Q96GI7: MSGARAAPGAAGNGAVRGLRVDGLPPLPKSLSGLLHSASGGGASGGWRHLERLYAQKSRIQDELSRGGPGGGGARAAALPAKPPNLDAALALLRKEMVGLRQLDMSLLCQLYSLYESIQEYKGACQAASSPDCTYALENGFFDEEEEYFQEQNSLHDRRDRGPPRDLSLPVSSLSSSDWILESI
UniProt Q5T1M5: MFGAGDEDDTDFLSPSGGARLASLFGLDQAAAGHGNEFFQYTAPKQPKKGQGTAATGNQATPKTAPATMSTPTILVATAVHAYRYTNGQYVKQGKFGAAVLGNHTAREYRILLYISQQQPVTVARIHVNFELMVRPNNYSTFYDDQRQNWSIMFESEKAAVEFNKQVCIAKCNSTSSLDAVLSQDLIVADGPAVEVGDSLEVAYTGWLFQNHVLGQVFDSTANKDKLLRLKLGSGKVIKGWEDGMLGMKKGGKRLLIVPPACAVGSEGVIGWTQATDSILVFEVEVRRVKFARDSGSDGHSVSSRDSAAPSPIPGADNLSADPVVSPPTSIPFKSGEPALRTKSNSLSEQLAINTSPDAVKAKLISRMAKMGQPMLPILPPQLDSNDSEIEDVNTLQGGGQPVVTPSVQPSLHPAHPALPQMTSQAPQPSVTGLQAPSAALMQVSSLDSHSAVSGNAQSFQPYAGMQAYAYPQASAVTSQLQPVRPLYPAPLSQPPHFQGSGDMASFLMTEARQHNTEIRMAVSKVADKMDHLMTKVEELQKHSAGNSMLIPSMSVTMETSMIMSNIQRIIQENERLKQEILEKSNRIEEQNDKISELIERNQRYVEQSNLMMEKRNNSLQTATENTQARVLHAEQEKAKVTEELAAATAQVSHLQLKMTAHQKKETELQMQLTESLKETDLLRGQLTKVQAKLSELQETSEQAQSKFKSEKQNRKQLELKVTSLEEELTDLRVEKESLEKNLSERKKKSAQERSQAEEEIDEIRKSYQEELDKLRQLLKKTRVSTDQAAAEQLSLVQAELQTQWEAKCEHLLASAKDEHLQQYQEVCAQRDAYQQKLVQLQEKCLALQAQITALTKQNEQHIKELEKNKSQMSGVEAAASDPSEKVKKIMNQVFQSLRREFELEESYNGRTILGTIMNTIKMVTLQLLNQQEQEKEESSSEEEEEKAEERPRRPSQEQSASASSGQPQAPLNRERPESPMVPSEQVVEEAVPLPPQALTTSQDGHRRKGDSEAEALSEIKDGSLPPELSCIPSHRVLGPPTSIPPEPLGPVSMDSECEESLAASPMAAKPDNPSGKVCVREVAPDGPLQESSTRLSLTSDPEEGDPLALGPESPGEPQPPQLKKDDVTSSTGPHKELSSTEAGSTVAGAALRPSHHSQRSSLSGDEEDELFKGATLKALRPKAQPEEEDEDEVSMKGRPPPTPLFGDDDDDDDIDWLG
UniProt Q9NWM8: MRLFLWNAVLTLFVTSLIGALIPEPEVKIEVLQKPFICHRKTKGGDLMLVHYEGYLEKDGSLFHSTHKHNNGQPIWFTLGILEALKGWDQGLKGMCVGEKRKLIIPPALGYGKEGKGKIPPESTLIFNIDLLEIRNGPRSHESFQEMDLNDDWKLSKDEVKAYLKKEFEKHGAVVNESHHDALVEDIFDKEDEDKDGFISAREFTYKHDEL
UniProt Q9UHY8: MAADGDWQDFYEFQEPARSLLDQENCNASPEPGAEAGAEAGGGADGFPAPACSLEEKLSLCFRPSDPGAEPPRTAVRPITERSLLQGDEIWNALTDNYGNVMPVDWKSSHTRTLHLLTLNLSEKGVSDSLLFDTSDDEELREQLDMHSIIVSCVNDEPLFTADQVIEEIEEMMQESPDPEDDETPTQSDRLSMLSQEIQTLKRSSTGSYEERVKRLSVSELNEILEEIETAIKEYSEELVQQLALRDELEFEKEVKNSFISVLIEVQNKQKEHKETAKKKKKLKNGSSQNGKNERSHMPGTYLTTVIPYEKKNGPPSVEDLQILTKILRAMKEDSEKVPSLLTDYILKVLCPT
UniProt P07954: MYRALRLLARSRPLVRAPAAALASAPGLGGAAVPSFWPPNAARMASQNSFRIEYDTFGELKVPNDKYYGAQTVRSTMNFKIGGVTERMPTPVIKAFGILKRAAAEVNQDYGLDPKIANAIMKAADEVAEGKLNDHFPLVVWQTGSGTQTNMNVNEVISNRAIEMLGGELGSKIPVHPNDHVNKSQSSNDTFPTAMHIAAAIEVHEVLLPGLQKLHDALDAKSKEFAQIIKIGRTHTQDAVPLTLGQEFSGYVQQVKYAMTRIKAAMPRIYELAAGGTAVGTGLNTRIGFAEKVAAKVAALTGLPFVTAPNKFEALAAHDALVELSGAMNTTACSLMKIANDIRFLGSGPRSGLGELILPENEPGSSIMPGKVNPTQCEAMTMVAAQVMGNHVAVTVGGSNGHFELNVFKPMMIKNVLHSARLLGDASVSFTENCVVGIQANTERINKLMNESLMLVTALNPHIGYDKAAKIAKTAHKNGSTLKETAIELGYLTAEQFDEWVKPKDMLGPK
UniProt Q9NVF7: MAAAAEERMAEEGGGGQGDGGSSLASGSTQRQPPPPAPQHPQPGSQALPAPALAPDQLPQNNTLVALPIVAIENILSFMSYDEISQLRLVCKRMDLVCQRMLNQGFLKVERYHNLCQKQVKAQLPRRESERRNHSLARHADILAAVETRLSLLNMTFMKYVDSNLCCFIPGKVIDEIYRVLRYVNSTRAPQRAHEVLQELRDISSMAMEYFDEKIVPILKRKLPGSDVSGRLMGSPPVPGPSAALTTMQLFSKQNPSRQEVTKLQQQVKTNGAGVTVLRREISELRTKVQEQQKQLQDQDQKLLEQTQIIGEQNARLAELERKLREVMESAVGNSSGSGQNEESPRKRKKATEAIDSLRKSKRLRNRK
UniProt Q96HJ9: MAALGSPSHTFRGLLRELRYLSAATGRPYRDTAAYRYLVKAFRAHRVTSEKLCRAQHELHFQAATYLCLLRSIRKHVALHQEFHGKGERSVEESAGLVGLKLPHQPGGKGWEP
UniProt Q8N0W3: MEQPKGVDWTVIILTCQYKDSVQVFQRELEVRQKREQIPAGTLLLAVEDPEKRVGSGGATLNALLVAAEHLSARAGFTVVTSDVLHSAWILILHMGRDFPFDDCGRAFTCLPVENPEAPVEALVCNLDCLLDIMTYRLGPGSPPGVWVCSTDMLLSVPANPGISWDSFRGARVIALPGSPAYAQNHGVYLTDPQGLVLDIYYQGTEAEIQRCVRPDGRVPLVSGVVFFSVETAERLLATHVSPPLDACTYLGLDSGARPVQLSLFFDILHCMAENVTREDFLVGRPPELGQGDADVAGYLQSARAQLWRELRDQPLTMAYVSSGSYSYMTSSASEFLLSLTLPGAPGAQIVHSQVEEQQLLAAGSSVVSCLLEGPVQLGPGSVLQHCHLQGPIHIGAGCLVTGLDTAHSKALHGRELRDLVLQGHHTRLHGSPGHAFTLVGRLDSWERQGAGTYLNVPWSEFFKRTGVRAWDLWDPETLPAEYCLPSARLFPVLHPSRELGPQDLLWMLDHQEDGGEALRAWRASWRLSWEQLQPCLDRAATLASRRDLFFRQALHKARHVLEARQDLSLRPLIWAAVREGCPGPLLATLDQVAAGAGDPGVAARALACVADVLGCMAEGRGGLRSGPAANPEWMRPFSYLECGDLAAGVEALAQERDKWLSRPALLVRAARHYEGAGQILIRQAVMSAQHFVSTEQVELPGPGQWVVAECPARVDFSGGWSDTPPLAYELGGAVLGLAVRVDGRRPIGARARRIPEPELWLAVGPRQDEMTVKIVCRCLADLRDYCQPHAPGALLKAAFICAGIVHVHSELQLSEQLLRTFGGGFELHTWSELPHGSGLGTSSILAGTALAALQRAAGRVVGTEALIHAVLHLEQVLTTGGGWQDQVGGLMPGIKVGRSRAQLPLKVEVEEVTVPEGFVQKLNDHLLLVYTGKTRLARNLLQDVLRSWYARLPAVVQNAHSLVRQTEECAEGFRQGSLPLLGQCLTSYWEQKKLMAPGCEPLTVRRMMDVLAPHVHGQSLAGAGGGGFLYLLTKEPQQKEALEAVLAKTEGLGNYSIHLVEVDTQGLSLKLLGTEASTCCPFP

pictilisib = compound: CS(=O)(=O)N1CCN(Cc2cc3nc(-c4cccc5[nH]ncc45)nc(N4CCOCC4)c3s2)CC1 [pictilisib]
How it was run: as §1

crizotinib = compound: C[C@@H](Oc1cc(-c2cnn(C3CCNCC3)c2)cnc1N)c1c(Cl)ccc(F)c1Cl [crizotinib]
How it was run: as §1

[1] = compound: C[C@H](C1=CC=C(C=C1)C(=O)NC2=C3C=CNC3=NC=C2)N
How it was run: as §1

duvelisib = compound: C[C@H](Nc1ncnc2nc[nH]c12)c1cc2cccc(Cl)c2c(=O)n1-c1ccccc1 [duvelisib]
How it was run: as §1

gandotinib = compound: Cc1cc(Nc2cc(CN3CCOCC3)c3nc(C)c(Cc4ccc(Cl)cc4F)n3n2)n[nH]1 [gandotinib]
How it was run: as §1

tozasertib = compound: Cc1cc(Nc2cc(N3CCN(C)CC3)nc(Sc3ccc(NC(=O)C4CC4)cc3)n2)n[nH]1 [tozasertib]
How it was run: as §1

doramapimod = compound: Cc1ccc(-n2nc(C(C)(C)C)cc2NC(=O)Nc2ccc(OCCN3CCOCC3)c3ccccc23)cc1 [doramapimod]
How it was run: as §1

bafetinib = compound: Cc1ccc(NC(=O)c2ccc(CN3CC[C@H](N(C)C)C3)c(C(F)(F)F)c2)cc1Nc1nccc(-c2cncnc2)n1 [bafetinib]
How it was run: as §1

[2] = compound: Cc1cccc(CC(=O)N2CCc3c2ccc(-c2cn(C)c4ncnc(N)c24)c3F)n1
How it was run: as §1

| Target | log2 fold change (lapatinib) | log2 fold change (pictilisib) | log2 fold change (crizotinib) | log2 fold change [1] | log2 fold change (duvelisib) | log2 fold change (gandotinib) | log2 fold change (tozasertib) | log2 fold change (doramapimod) | log2 fold change (bafetinib) | log2 fold change [2] |
| --- | --- | --- | --- | --- | --- | --- | --- | --- | --- | --- |
| FGFR1OP (UniProt O95684) | inactive: 0.001 | inactive: -0.016 | inactive: -0.007 | inactive: -0.024 | inactive: -0.012 | inactive: 0.059 | inactive: 0.036 | inactive: 0 | inactive: -0.031 | inactive: 0.002 |
| FLCN (UniProt Q8NFG4) | inactive: -0.039 | inactive: 0.009 | inactive: -0.025 | inactive: -0.029 | inactive: -0.005 | inactive: -0.051 | inactive: 0.075 | inactive: 0.061 | inactive: 0.026 | inactive: 0.033 |
| FBXO22 (UniProt Q8NEZ5) | inactive: -0.035 | inactive: -0.027 | inactive: -0.035 | inactive: 0.035 | inactive: -0.012 | inactive: -0.03 | inactive: 0 | inactive: 0.034 | inactive: -0.049 | inactive: -0.039 |
| FBXO38 (UniProt Q6PIJ6) | inactive: 0.039 | inactive: -0.052 | inactive: 0.038 | inactive: 0.018 | inactive: 0.01 | inactive: -0.037 | inactive: 0.119 | inactive: 0.05 | inactive: -0.316 | inactive: -0.016 |
| FBXW9 (UniProt Q5XUX1) | inactive: -0.028 | inactive: 0.029 | inactive: -0.138 | inactive: 0.027 | inactive: 0.05 | inactive: -0.047 | inactive: 0.008 | inactive: -0.051 | inactive: -0.054 | inactive: 0.02 |
| FLNA (UniProt P21333) | inactive: -0.02 | inactive: -0.008 | inactive: -0.009 | inactive: -0.082 | inactive: -0.006 | inactive: 0.025 | inactive: -0.016 | inactive: -0.009 | inactive: 0.014 | inactive: 0.031 |
| FCHSD1 (UniProt Q86WN1) | inactive: -0.015 | inactive: -0.011 | inactive: 0.011 | inactive: -0.069 | inactive: -0.007 | inactive: 0.105 | inactive: 0.046 | inactive: 0.073 | inactive: -0.064 | inactive: 0.019 |
| FHOD1 (UniProt Q9Y613) | inactive: -0.018 | inactive: -0.011 | inactive: -0.014 | inactive: 0.017 | inactive: -0.023 | inactive: -0.141 | inactive: 0.008 | inactive: 0.045 | inactive: -0.063 | inactive: 0.035 |
| FANCL isoform 2 (UniProt Q9NW38) | inactive: -0.026 | inactive: -0.063 | inactive: -0.046 | inactive: -0.226 | inactive: 0.107 | inactive: -0.341 | inactive: 0.029 | inactive: -0.151 | inactive: -0.094 | inactive: 0.031 |
| FAM89A (UniProt Q96GI7) | inactive: 0.108 | inactive: 0.035 | inactive: -0.049 | inactive: 0.036 | inactive: -0.093 | inactive: -0.035 | inactive: -0.02 | inactive: -0.028 | inactive: 0.113 | inactive: -0.039 |
| FKBP15 (UniProt Q5T1M5) | inactive: 0.008 | inactive: -0.028 | inactive: -0.002 | inactive: -0.014 | inactive: 0.005 | inactive: -0.024 | inactive: -0.009 | inactive: -0.004 | inactive: -0.052 | inactive: 0.024 |
| FLVCR1 (UniProt Q9Y5Y0) | inactive: 0.015 | inactive: 0.001 | inactive: -0.016 | inactive: -0.046 | inactive: 0.052 | inactive: -0.117 | inactive: 0.068 | inactive: -0.029 | inactive: -0.006 | inactive: 0.04 |
| FN3KRP (UniProt Q9HA64) | inactive: -0.017 | inactive: -0.048 | inactive: 0 | inactive: 0.011 | inactive: 0.006 | inactive: 0.002 | inactive: -0.014 | inactive: 0.014 | inactive: 0.005 | inactive: 0.006 |
| FAM98C (UniProt Q17RN3) | inactive: 0.28 | inactive: -0.099 | inactive: 0.005 | inactive: -0.019 | inactive: -0.119 | inactive: -0.059 | inactive: -0.078 | inactive: -0.013 | inactive: -0.101 | inactive: 0.038 |
| FKBP14 (UniProt Q9NWM8) | inactive: -0.006 | inactive: -0.097 | inactive: 0.009 | inactive: -0.044 | inactive: 0.01 | inactive: 0.016 | inactive: -0.011 | inactive: 0.002 | inactive: -0.112 | inactive: -0.039 |
| FNBP1 (UniProt Q96RU3) | inactive: -0.028 | inactive: 0.078 | inactive: -0.027 | inactive: -0.048 | inactive: -0.035 | inactive: -0.041 | inactive: 0.164 | inactive: 0.011 | inactive: -0.01 | inactive: 0.055 |
| FEZ2 isoform 2 (UniProt Q9UHY8) | inactive: -0.032 | inactive: -0.02 | inactive: -0.039 | inactive: 0.089 | inactive: -0.005 | inactive: -0.002 | inactive: -0.003 | inactive: 0.022 | inactive: 0.056 | inactive: -0.018 |
| FH (UniProt P07954) | inactive: -0.009 | inactive: -0.001 | inactive: 0.016 | inactive: 0.049 | inactive: 0.001 | inactive: -0.039 | inactive: -0.001 | inactive: -0.003 | inactive: 0.014 | inactive: -0.041 |
| FKBP1A (UniProt P62942) | inactive: -0.011 | inactive: -0.031 | inactive: 0.005 | active: -0.814 | inactive: 0.074 | inactive: 0.266 | inactive: -0.037 | inactive: -0.04 | inactive: -0.111 | inactive: 0.15 |
| FBXO42 (UniProt Q6P3S6) | inactive: 0.031 | inactive: -0.088 | inactive: 0.014 | inactive: -0.097 | inactive: -0.087 | inactive: 0.069 | inactive: -0.004 | inactive: -0.021 | inactive: -0.009 | inactive: 0.072 |
| FDXR isoform 7 (UniProt P22570) | inactive: 0.016 | inactive: -0.034 | inactive: -0.024 | inactive: -0.036 | inactive: -0.003 | inactive: 0.04 | inactive: -0.008 | inactive: 0.049 | inactive: -0.055 | inactive: -0.016 |
| FBXO28 (UniProt Q9NVF7) | inactive: 0.004 |  |  |  |  |  |  |  |  |  |
| FER (UniProt P16591) | inactive: 0.268 | inactive: -0.25 | inactive: 0.426 | inactive: -0.222 | inactive: -0.051 | inactive: 0.371 | inactive: 0.077 | inactive: 0.029 | inactive: -0.061 | inactive: 0.082 |
| FASTKD5 (UniProt Q7L8L6) | inactive: -0.025 | inactive: 0.085 | inactive: -0.075 | inactive: 0.089 | inactive: -0.042 | inactive: -0.193 | inactive: 0.056 | inactive: 0.036 | inactive: 0.169 | inactive: -0.056 |
| FMC1 (UniProt Q96HJ9) | inactive: -0.011 | inactive: -0.001 | inactive: -0.013 | inactive: -0.057 | inactive: -0.134 | inactive: -0.056 | inactive: -0.05 | inactive: -0.092 | inactive: -0.051 | inactive: 0.037 |
| FKBP9 (UniProt O95302) | inactive: -0.058 | inactive: -0.002 | inactive: 0.004 | inactive: -0.005 | inactive: -0.025 | inactive: 0.03 | inactive: 0.051 | inactive: -0.014 | inactive: -0.011 | inactive: 0.01 |
| FBXL18 isoform 4 (UniProt Q96ME1) | inactive: 0.004 | inactive: -0.022 | inactive: 0.009 | inactive: -0.039 | inactive: 0.009 | inactive: 0.015 | inactive: 0 | inactive: 0.021 | inactive: 0.027 | inactive: -0.022 |
| FASN, A0A0U1RRG3 | inactive: -0.444 |  |  |  |  |  |  |  |  |  |
| FCSK (UniProt Q8N0W3) | inactive: 0.006 | inactive: -0.023 | inactive: -0.01 | inactive: -0.092 | inactive: 0.018 | inactive: 0.031 | inactive: 0.017 | inactive: -0.004 | inactive: -0.014 | inactive: 0.041 |

Whole records from above. Order of values: log2 fold change (lapatinib)	log2 fold change (pictilisib)	log2 fold change (crizotinib)	log2 fold change [1]	log2 fold change (duvelisib)	log2 fold change (gandotinib)	log2 fold change (tozasertib)	log2 fold change (doramapimod)	log2 fold change (bafetinib)	log2 fold change [2]
FKBP1A (UniProt P62942) is listed with inactive: -0.011	inactive: -0.031	inactive: 0.005	active: -0.814	inactive: 0.074	inactive: 0.266	inactive: -0.037	inactive: -0.04	inactive: -0.111	inactive: 0.15
FNBP1 (UniProt Q96RU3) is listed with inactive: -0.028	inactive: 0.078	inactive: -0.027	inactive: -0.048	inactive: -0.035	inactive: -0.041	inactive: 0.164	inactive: 0.011	inactive: -0.01	inactive: 0.055
